{"sequences": {"note": "By UniProt entry, the sequences of proteins in these tests, tags left out. Where a name states a change or a piece, a line headed by the entry shows the natural chain unless it says otherwise.", "UniProt P51450": "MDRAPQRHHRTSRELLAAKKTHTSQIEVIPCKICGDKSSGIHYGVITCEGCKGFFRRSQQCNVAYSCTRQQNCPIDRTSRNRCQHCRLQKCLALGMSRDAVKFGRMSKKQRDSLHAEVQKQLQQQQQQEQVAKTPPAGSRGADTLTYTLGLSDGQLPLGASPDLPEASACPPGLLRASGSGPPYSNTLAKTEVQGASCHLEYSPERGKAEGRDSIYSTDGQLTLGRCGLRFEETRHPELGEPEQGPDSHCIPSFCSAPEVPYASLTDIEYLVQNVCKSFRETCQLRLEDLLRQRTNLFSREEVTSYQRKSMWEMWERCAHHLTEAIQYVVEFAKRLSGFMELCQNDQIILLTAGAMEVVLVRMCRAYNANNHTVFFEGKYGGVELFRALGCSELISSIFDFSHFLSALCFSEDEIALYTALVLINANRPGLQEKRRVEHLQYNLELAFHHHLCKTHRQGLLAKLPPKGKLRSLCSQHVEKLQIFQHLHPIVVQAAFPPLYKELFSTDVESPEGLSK"}, "source": "PubChem BioAssay AID2551", "about": "(National Center for Advancing Translational Sciences (NCATS), 2010)", "note": "About 17,000 (5.5%) of roughly 310,000 compounds were called active. The inconclusive results got no clear call from the source; some entries with a clear call stand among them for comparison. Calls come from the whole dose curve; as a rule, active = well fitted inhibition curve with a large enough effect; inconclusive = small, poorly fitted or top-dose-only effect, or effect the other way; inactive = no such curve, though single readings can be large or run the other way. Potencies beside an inconclusive call are fits to weak or partial responses and may not hold up. % is set by controls: 0 for no effect and ±100 for the full control effect; potency is the fitted concentration of half-maximal effect.", "data": [{"target": "Nuclear receptor ROR-gamma (Mus musculus) (UniProt P51450)", "assay": "qHTS for inhibitors of ROR gamma transcriptional activity; note: nearly all actives have a fitted effect of over 60% in size", "conditions": "Drosophila S2 Gal4-RORgamma UAS-luciferase reporter, 20 h; activity change, negative = inhibition: at 53.6 µM (top of the series)", "how_it_was_run": "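Drosophila S2 cells stably expressing Gal4-DBD/mouse RORγ fusion under metallothionein promoter plus UAS-luciferase; compound 1 h, then 700 uM CuSO4 induction for 20 h at ambient temperature; inhibition read as reduced luminescence.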", "values": [{"smiles": "CCOCCCNC(=O)C(NC(=O)Cc1cccs1)c1ccc(C)cc1", "note": "(configuration not stated)", "Potency": "inconclusive: 35.5 µM [activator, single point]"}, {"smiles": "C/C(=N\\Nc1nc(C)cc(-c2ccccc2)n1)c1ccc(O)cc1", "Potency": "inconclusive: 35.5 µM [inhibitor, single point]"}, {"smiles": "CC(C)(C)Nc1nc(Cl)nc(NCc2ccccc2)n1", "Potency": "inconclusive: 11.2 µM [activator, partial curve]"}, {"smiles": "CSc1ccc(/C=C/C(=O)c2ccc(NC(=O)Cc3ccccc3)cc2)cc1", "Potency": "inconclusive: 22.4 µM [inhibitor, single point]"}, {"smiles": "CCOc1ccccc1NC(=O)CCC(=O)Nc1nnc(C2CCCCC2)s1", "activity change, negative = inhibition": "inactive: -2.42%"}, {"smiles": "Cc1ccc(NC(=O)CCN2CC(C)OC(C)C2)cc1", "note": "(configuration not stated)", "activity change, negative = inhibition": "inactive: 8.77%"}, {"smiles": "CCOc1ccc(NC(=O)CSc2nc3cccnc3n2CCOC)cc1", "activity change, negative = inhibition": "inactive: -23.4%"}, {"smiles": "CCC(=O)NC(=S)NNC(=O)c1ccccc1[N+](=O)[O-]", "Potency": "active: 17.8 µM"}, {"smiles": "N#Cc1c(-c2ccccc2)cc2nc3ccccc3n2c1N", "Potency": "inconclusive: 10 µM [activator, partial curve]"}, {"smiles": "O=C1NCCN1c1ncc([N+](=O)[O-])s1", "activity change, negative = inhibition": "inactive: -3.69% [at 16.9 µM]"}, {"smiles": "COc1cc(NC(=O)c2cccc(C)c2)ccc1NC(=O)c1cc2ccccc2o1", "Potency": "inconclusive: 15.8 µM [inhibitor, single point]"}, {"smiles": "C/C(=C\\C(=O)c1ccc(Cl)cc1Cl)N(C)C", "Potency": "active: 15.8 µM"}, {"smiles": "CN(C)S(=O)(=O)c1cccc(NC(=O)c2ccc(N3CCOCC3)c([N+](=O)[O-])c2)c1", "Potency": "inconclusive: 11.2 µM [activator, partial curve]"}, {"smiles": "N#C/C(=C\\c1cccnc1)c1ccccn1", "activity change, negative = inhibition": "inactive: -33.4%"}, {"smiles": "Cc1cc(N=NC(=O)c2ccccc2)ccc1O", "Potency": "inconclusive: 35.5 µM [inhibitor, single point]"}, {"smiles": "COc1cc(NC(=S)N2CCN(S(=O)(=O)c3ccc(C)cc3)CC2)cc(OC)c1", "Potency": "inconclusive: 15.8 µM [inhibitor, single point]"}, {"smiles": "CCN(CC(=O)Nc1ccc(N2CCOCC2)cc1)Cc1nc2ccccc2c(=O)[nH]1", "Potency": "active: 3.98 µM"}, {"smiles": "COC(=O)c1cc(=O)n(CCc2ccccc2F)c(=Nc2ccc(F)c(Cl)c2)s1", "Potency": "inconclusive: 5.01 µM [inhibitor, single point]"}, {"smiles": "Cc1cc(C)c2cc(C#N)c(SCC(=O)NCc3ccco3)nc2c1", "Potency": "active: 12.6 µM"}, {"smiles": "COc1ccc(Cl)cc1S(=O)(=O)NCc1ccncc1", "activity change, negative = inhibition": "inactive: 10.3%"}, {"smiles": "CC1(C)Cc2c(c(=S)nc(-c3ccccc3)n2CCCN2CCOCC2)CO1", "Potency": "inconclusive: 35.5 µM [inhibitor, single point]"}, {"smiles": "COC(=O)c1ccc(NC(=S)Nc2ccc3ccccc3c2)cc1", "Potency": "active: 12.6 µM"}, {"smiles": "Cc1ccc(Nc2nc(Nc3ccc(C)cc3)nc(SC3=NCCS3)n2)cc1", "Potency": "active: 2.51 µM"}, {"smiles": "CC(C)(C)c1cc(-c2ccco2)c(C#N)c(SCC#N)n1", "Potency": "inconclusive: 2.51 µM [inhibitor, partial curve, poor fit]"}, {"smiles": "CSCCC(NS(=O)(=O)c1ccccc1F)C(=O)N1CCCCCC1", "note": "(configuration not stated)", "activity change, negative = inhibition": "inactive: -21.2%"}, {"smiles": "Cn1cc(C(=O)Nc2ccccn2)c(=O)c2ccccc21", "activity change, negative = inhibition": "inactive: 27%"}, {"smiles": "CCOC(=O)c1c(NC(=O)CN2C(=O)NC3(CCCCCC3)C2=O)sc(C)c1-c1ccc(C)cc1", "Potency": "inconclusive: 22.4 µM [activator, single point]"}, {"smiles": "COc1ccccc1-n1c(=S)[nH]c2c(sc(=S)n2-c2ccccc2C)c1=O", "activity change, negative = inhibition": "inactive: -0.102%"}, {"smiles": "Cc1ccc(C2=NNC3(CCOC(C)(C)C3)S2)cc1", "note": "(configuration not stated)", "Potency": "active: 5.62 µM"}, {"smiles": "CCCCOc1cccc(C(=O)NNC(=S)NC2CCCCC2)c1", "Potency": "inconclusive: 0.0355 µM [activator, full curve, poor fit]"}, {"smiles": "CS(=O)(=O)N(Cc1ccccc1)c1ccc(C(=O)N2CCc3ccccc3C2)cc1", "Potency": "inconclusive: 31.6 µM [activator, single point]"}, {"smiles": "CC(=O)Nc1ccc(S(=O)(=O)Nc2cccc3cccnc23)cc1", "Potency": "active: 10 µM"}, {"smiles": "CN(C)C(=S)Nc1ccc(N2CCOCC2)cc1", "activity change, negative = inhibition": "inactive: 8.77%"}, {"smiles": "Cc1ccc(C2C(C#N)=C(N)Oc3n[nH]c(-c4cccs4)c32)cc1", "note": "(configuration not stated)", "Potency": "inconclusive: 20 µM [activator, single point]"}, {"smiles": "COCn1c(-c2cccc(Br)c2)nc2ccccc21", "Potency": "inconclusive: 0.562 µM [inhibitor, full curve]"}, {"smiles": "CC(C)(C)OC(=O)NCCCC[C@H](NC(=O)c1nc[nH]c1C(=O)N1CCN(C(=O)OC(C)(C)C)CC1)C(=O)OC(C)(C)C", "Potency": "inconclusive: 35.5 µM [inhibitor, single point]"}, {"smiles": "NC(=O)/C(=N\\OC(=O)c1ccco1)c1nc(-c2ccc(Br)cc2)cs1", "Potency": "active: 4.47 µM"}, {"smiles": "c1ccc(Oc2cccc(OCCCn3cncn3)c2)cc1", "Potency": "inconclusive: 14.1 µM [activator, partial curve]"}, {"smiles": "COc1cc(NC(=O)CSc2ncnc3sc4c(c23)CCC(C)C4)c(C(=O)O)cc1OC", "note": "(configuration not stated)", "Potency": "active: 11.2 µM"}, {"smiles": "Cc1ccc(SCc2ccc(C(=O)NCc3cccnc3)cc2)cc1", "Potency": "inconclusive: 10 µM [activator, partial curve]"}, {"smiles": "O=C(NCc1cccnc1)c1ccc(-c2ccc(Cl)cc2)o1", "Potency": "inconclusive: 11.2 µM [activator, partial curve]"}, {"smiles": "O=C(/C=C/c1ccc(F)cc1)NCCNC(=O)/C=C/c1ccc(F)cc1", "activity change, negative = inhibition": "inactive: 29.2%"}, {"smiles": "COc1ccc(Cl)cc1NC(=S)NCc1ccco1", "Potency": "active: 17.8 µM"}, {"smiles": "CN(C)S(=O)(=O)c1ccc(NC(=S)NC(=O)c2cccs2)cc1", "Potency": "active: 8.91 µM"}, {"smiles": "CCc1ccc2c(c1)c(N=NC1=NC(=O)CS1)c(O)n2CC", "Potency": "active: 11.2 µM"}, {"smiles": "O=C(CNc1cc(S(=O)(=O)N2CCOCC2)ccc1NCC1CCCO1)Nc1ccc(F)c(F)c1", "note": "(configuration not stated)", "Potency": "inconclusive: 35.5 µM [activator, single point]"}, {"smiles": "Cc1cccc2c1nc(-c1ccccc1)n1cnnc21", "Potency": "inconclusive: 0.891 µM [inhibitor, full curve]"}, {"smiles": "Cc1cccc2sc(NC(=O)CSc3nnnn3C)nc12", "activity change, negative = inhibition": "inactive: -1.19%"}, {"smiles": "COc1ccc(C(C)=O)cc1CSc1nnc(Nc2ccc(C)cc2C)s1", "Potency": "inconclusive: 10 µM [activator, partial curve, poor fit]"}, {"smiles": "COc1ccc(C(=O)N/N=C(\\C)c2ccc3c(c2)C2C=CCC2C(c2ccccc2)N3)cc1", "note": "(configuration not stated)", "Potency": "inconclusive: 12.6 µM [inhibitor, single point]"}, {"smiles": "Cn1c(=O)oc2cc(S(=O)(=O)Nc3ccc(Cl)cc3)ccc21", "Potency": "inconclusive: 14.1 µM [activator, single point]"}, {"smiles": "COc1ccc(C2c3[nH]c4ccccc4c3CCN2C(=O)c2ccc(=O)n(C)n2)c(F)c1", "note": "(configuration not stated)", "activity change, negative = inhibition": "inactive: 9.05%"}, {"smiles": "COc1ccccc1N1CCN(/N=C/C(Cl)=C/c2ccccc2)CC1", "activity change, negative = inhibition": "inactive: -10.5%"}, {"smiles": "Cc1cc(NC(=O)c2ccc(Cl)cc2)c(C(C)C)cc1O", "Potency": "inconclusive: 10 µM [activator, partial curve, poor fit]"}, {"smiles": "CCCCOc1ccc(S(=O)(=O)N2CCCCCC2)cc1", "Potency": "inconclusive: 20 µM [activator, single point]"}, {"smiles": "CCn1cc(/C=N\\NC(=O)c2ccc(Cl)cc2)cn1", "Potency": "active: 11.2 µM"}, {"smiles": "Cc1ccc(/C=C/C(=O)Nc2cccc3cccnc23)o1", "activity change, negative = inhibition": "inactive: 4.62%"}, {"smiles": "COc1ccc(CCN2CCCn3c2nc2c3c(=O)n(CC(N)=O)c(=O)n2C)cc1OC", "activity change, negative = inhibition": "inactive: 17.9%"}, {"smiles": "CCCn1nnc(NC(=O)/C=C/c2ccc(C(C)C)cc2)n1", "Potency": "inconclusive: 7.94 µM [activator, partial curve, poor fit]"}, {"smiles": "CCCOc1ccc(CNC(=O)C2CCN(C(=O)N3CCOc4ccccc43)CC2)cc1", "activity change, negative = inhibition": "inactive: 10.8%"}, {"smiles": "CCNC(=O)c1ccc(-n2nc(C(F)(F)F)c3c2CCCC3)cc1", "Potency": "inconclusive: 12.6 µM [activator, partial curve]"}, {"smiles": "COc1ccc(NC(=S)NC(=O)/C=C/c2ccccc2)cc1", "Potency": "active: 7.08 µM"}, {"smiles": "CCOC(=O)C1(Cc2cccc(OC)c2)CCN(Cc2ccc3c(c2)OCCO3)CC1", "Potency": "inconclusive: 35.5 µM [activator, single point]"}, {"smiles": "CC(Cc1n[nH]c(=S)o1)c1ccccc1", "note": "(configuration not stated)", "Potency": "inconclusive: 35.5 µM [inhibitor, single point]"}, {"smiles": "C=CCNC(=S)NC(CC(=O)OC)c1ccc2c(c1)OCO2", "note": "(configuration not stated)", "Potency": "inconclusive: 11.2 µM [inhibitor, partial curve]"}, {"smiles": "CS(=O)(=O)c1ccc(-c2cn3cc(C(=O)O)ccc3n2)cc1", "Potency": "active: 7.94 µM"}, {"smiles": "Cc1ccc2cccc(OCc3ccc(F)cc3)c2n1", "Potency": "inconclusive: 11.2 µM [inhibitor, partial curve, poor fit]"}, {"smiles": "CC(=O)n1cc(N(C(=O)CCl)c2ccc(Cl)cc2)c2ccccc21", "Potency": "inconclusive: 35.5 µM [inhibitor, single point]"}, {"smiles": "COC(=O)c1ccc(NC(=O)CCS(=O)(=O)c2ccc(C)cc2)cc1", "activity change, negative = inhibition": "inactive: 3.37%"}, {"smiles": "CNC(=O)COC(=O)c1c2c(nc3ccccc13)CCC2", "activity change, negative = inhibition": "inactive: 14.4%"}, {"smiles": "Cc1ccc(CNC(=O)/C=C/c2ccc(S(=O)(=O)N3CCOCC3)cc2)cc1", "Potency": "inconclusive: 12.6 µM [activator, partial curve]"}, {"smiles": "COc1ccc2[nH]c3c(c2c1)CCN1C(=O)N([C@@H](C)C(=O)NC2CC2)C(=O)[C@]31C", "activity change, negative = inhibition": "inactive: -14.6%"}, {"smiles": "Cc1noc(C(=O)Nc2cccnc2)c1Cl", "Potency": "inconclusive: 0.1 µM [activator, full curve, poor fit]"}, {"smiles": "CC(=O)Nc1ccc(SCc2ncc(-c3ccccc3)o2)cc1", "activity change, negative = inhibition": "inactive: -19.9%"}, {"smiles": "Cc1ccc(-c2cc(-c3ccccc3C)[nH]n2)c(O)c1", "Potency": "active: 0.794 µM"}, {"smiles": "CC(C)(C)C(=O)Cn1c(=N)n(Cc2ccccc2Cl)c2ccccc21", "Potency": "active: 4.47 µM"}, {"smiles": "Cc1ccccc1-n1c(-c2csc(C)c2C)n[nH]c1=S", "Potency": "active: 2.82 µM"}]}]}
